The text below walks through data of article PMC10981675, “Structural basis for phage-mediated activation and repression of bacterial DSR2 anti-phage defense system” (Nature Communications, 2024).

No constants are given. Whether binding was seen depends on the method and setting. Some results given as binding are weak or reduced against the parent protein; the word gives no strength.

In assay [1] the target is T1, DSR2 (Y71A, D188A) double mutant (Bacillus subtilis) (UniProt P0DXN8).
T1 sequence: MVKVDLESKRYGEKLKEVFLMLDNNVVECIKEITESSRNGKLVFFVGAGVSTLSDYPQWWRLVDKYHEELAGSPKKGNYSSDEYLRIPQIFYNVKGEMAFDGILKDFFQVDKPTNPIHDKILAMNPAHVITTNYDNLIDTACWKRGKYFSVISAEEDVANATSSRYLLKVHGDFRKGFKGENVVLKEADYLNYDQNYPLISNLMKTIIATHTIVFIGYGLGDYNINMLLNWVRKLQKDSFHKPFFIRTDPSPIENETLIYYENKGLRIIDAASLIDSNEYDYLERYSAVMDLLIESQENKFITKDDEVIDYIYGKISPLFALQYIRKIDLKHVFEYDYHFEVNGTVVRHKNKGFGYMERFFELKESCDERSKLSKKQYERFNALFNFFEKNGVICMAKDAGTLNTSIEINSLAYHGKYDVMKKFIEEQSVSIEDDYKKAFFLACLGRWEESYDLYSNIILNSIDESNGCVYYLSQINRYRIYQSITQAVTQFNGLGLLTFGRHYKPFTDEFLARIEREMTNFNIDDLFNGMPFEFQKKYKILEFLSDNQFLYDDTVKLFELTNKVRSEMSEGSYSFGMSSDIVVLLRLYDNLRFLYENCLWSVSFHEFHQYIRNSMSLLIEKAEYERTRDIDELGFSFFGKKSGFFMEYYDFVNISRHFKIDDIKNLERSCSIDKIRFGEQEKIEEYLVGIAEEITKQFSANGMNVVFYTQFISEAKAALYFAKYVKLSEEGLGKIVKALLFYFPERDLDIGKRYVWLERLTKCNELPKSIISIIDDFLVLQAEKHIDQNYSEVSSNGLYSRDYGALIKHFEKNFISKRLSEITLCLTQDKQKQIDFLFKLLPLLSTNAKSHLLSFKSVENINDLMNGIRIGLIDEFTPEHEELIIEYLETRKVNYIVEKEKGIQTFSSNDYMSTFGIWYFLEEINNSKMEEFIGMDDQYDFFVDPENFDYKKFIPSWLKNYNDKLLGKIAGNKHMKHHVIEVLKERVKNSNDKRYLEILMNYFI
The assay is described as follows: tandem affinity co-purification + SEC; His-DSR2 and GST-tube made in E. coli; for wild type the cells expressing each were mixed before lysis; Ni-NTA, then glutathione resin, GST removed with HRV 3C, HiTrap Q, Superdex 200 Increase; mutants purified by the same method.

The target of assay [2] is T2, DSR2 W59A (Bacillus subtilis) (UniProt P0DXN8).
T2 sequence: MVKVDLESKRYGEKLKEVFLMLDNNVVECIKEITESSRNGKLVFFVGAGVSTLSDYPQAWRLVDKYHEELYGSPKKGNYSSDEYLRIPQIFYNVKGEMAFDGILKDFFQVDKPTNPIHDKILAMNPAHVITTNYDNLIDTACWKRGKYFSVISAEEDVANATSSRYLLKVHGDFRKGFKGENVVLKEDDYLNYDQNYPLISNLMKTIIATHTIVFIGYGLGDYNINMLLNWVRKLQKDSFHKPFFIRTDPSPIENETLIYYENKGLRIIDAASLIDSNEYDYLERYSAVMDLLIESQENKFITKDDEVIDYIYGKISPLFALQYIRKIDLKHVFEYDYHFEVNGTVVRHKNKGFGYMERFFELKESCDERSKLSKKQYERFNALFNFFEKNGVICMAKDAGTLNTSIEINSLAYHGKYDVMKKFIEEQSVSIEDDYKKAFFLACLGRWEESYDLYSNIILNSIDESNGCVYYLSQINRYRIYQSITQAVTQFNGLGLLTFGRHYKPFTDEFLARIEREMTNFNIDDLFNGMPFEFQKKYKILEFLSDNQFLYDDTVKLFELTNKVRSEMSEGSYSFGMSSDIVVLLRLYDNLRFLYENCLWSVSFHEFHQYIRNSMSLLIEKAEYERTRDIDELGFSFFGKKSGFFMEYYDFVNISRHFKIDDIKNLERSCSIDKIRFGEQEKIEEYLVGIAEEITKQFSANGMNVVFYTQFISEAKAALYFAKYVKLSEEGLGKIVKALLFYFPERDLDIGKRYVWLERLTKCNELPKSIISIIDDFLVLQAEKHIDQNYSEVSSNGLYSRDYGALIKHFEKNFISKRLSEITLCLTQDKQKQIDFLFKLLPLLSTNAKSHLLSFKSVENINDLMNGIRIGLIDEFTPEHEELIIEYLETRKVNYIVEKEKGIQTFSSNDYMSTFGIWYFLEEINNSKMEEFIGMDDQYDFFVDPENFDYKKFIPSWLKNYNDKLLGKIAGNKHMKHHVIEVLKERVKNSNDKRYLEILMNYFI
The description is as above.

B1: tail tube protein of phage SPR, wild type (natural protein)
chain: MKTVIQDTADVYFKRKSDGKLVFTAEAQTASFSQAISEEKLRGGIGNKPLYILKSEKEINLTVKNAFFDLEWLAMTQGETIQEETKVKVFDREHGLIVDDTNKVTLKGKPVSDVTFYNKKGLTYKIAVSTDGTYTIPTAFAAAKDKLTAVYQIEKVGRRLAIKASKFSERYEVEYRTIAYNPDTEEVYSDIYIQFPNVSPSGEFEMSLENGNALAPEIKFEALADTDTDEMAVVIEASRDENTAAPVEDTTGSTQSSDLGGTTE
notes: tail tube protein of Bacillus phage SPR; domains D1 and D2; GST removal with HRV 3C is told for the DSR2-tube complex; Alone it runs as monomeric and oligomeric species on SEC; Only D1 is seen in the maps; also called phage tail tube protein; source: E. coli BL21 Star (DE3); purified alone, or co-purified with DSR2 (Ni-NTA, glutathione resin, HRV 3C cleavage, HiTrap Q, Superdex 200); not shown: …
As to B1, the binding entry in assay [1] and in assay [2] was “binds” in each case.
